Data reported in article doi:10.1101/153262.
Substitutions are numbered along the chain they refer to. Names may count otherwise. These are yes or no findings as the source states them, for the method shown. Some results given as binding are weak or reduced against the parent protein; the word gives no strength.

T1: Enterococcus italicus Cas10 (Csm1) subunit of the EiCsm(1-5) type III-A interference complex (Enterococcus italicus DSM-15952) (UniProt E6LHV7)
T1 sequence: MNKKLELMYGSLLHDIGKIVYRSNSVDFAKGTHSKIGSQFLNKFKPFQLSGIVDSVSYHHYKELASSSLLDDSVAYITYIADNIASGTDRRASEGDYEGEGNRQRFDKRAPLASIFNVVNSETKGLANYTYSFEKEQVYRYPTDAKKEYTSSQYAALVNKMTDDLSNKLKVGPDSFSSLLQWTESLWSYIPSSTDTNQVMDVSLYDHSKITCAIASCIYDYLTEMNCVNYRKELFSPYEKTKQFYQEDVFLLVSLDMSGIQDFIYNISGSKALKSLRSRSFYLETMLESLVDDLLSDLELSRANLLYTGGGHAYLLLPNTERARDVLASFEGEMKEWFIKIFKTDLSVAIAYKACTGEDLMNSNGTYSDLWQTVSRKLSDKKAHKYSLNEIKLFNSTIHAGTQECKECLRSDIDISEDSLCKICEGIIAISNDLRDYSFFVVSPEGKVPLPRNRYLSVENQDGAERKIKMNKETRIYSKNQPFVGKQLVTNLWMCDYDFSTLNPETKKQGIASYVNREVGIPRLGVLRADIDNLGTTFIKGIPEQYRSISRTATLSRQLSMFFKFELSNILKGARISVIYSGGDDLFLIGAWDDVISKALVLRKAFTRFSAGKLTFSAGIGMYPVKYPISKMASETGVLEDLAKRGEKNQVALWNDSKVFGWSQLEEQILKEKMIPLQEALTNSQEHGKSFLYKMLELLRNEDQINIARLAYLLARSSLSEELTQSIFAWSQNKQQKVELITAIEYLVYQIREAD

B1: Enterococcus italicus Csm2 subunit of the EiCsm(1-5) complex (protein, UniProt E6LHV6 1-140)
chain: MELAKTKTGEMIDLNFARKVVEENKRVKDNRGRQEIVLFNGLTTSKLRNLLELINHVYTKVYNSDDTTLSEDVRDELEYLKVKFAYESGREPAVRTFIEKTYVDKLVDVVLKKNTKKIFLDYCKYFEALVAYAKFYRMGD
B2: Enterococcus italicus Csm5 subunit of the EiCsm(1-5) complex (protein, UniProt E6LHV3 1-349)
chain: MIEKVYQVKLKVYGPVHIGSGKIIRKQEYIYDRRKSLAHIVDGPNLVKFLNKKGKFTAYLQYLNTTKERADLYTFLRQEQIDTNDWKTFVLYTERVNQGKIDMKDHNPYSRTSTNRRQVDKGMNDLHLFVRDGRGDLYIPGSSLKGALRTVLEGANQSAEAFHSLSISDSLPIDPKNLAIYQKIDINKELKPMPLYRECVNVGTTVEFTMKINSDDWTIEKIEKQIQQAYLQYWNKWFVGMVTTPGGKAFIKGGGLPSVLHAKHRPTVLFLGGGTGFPSKTTHYLQKPKEQAQKDIFAILQRRFRNVYGKMATVPKNVPMVLKGTVNDSTNKWYQQGVCLLEFQPIGEA
B3: Enterococcus italicus Csm3 subunit of the EiCsm(1-5) complex (enzyme, UniProt E6LHV5 1-214)
chain: MYSKIRIVGKIDVLTGLHIGGGGETSMIGAIDSPVVRDPYSRLPIIPGSSIKGKMRSLLAKHIGLIPGQKMHNQDAPEILRLFGSSQKGAIQSSRLQISDAFFSKASQEEFDKKDLAYTETKFENTISRLTAVANPRQIERVTRGASFDFHIIYNVENINEVMADFENIKTAIHLLENDYLGGGGTRGNGRIRFVIDSIDTVVGDFDSSNLSIK
B4: Enterococcus italicus Csm3 D32A (enzyme, UniProt E6LHV5 1-214)
chain: B3 chain with D32A
B5: Enterococcus italicus Csm4 subunit of the EiCsm(1-5) complex (protein, UniProt E6LHV4 1-307)
chain: MNQLVVKLVKLTFKSPVHFGMKRLSDSNHTIAADTLFSALIIEALQQQLELSHLLNNLVITDLFPYNKTSYFLPKPLIRIEGKKGDESGYKAFKKLTYIPVENYSEYLRGEIDSLEASKIAESLNLGKASLSTKVSLQAVDHNGESEPYSVGNFTFYPESGLYFLAKGNADTIGQLEILMHALQYSGIGGKRSAGYGQFRCTIEDSGKFDSLLSQTGNIAILLSSAMASDEELVDCLEDARYLLKKRTGFVQSKTYADQLVKKKDFYAFSAGSTFYQKFNGKIFDVSDNGRHSVYRYAKAFWLEGKI

Biological target: T1, Enterococcus italicus Cas10 (Csm1) subunit of the EiCsm(1-5) type III-A interference complex (Enterococcus italicus DSM-15952)
Assay: co-purification

Row | Binder | binding
1 | B1 | binds
2 | B2 | binds
3 | B3 | binds
4 | B4 | binds
5 | B5 | binds
